Literature values as cited in US6486326B2, “iso-CBI and iso-CI analogs of CC-1065 duocarmycins” (The Scripps Research Institute, priority 1997, dated 2002).
For at least one compound, name, drawing or mass did not settle the structure.

Settings: acid-catalyzed solvolysis; comparison agents; cited from earlier work

Structure (SMILES)	Regioselectivity
CC(C)(C)OC(=O)N1CC2CC23C1=CC(=O)c1ccc(C#N)cc13 (racemic) [compound 60]	>20:1
COC(=O)c1cc2c([nH]1)C(=O)C=C1N(C(=O)OC(C)(C)C)CC3CC123 (stereo not shown) [compound 57]	6-4:1
Cc1c[nH]c2c1C13CC1CN(C(=O)OC(C)(C)C)C3=CC2=O (stereo not shown) [compound 55]	4:1
COC(=O)C1(C)NC2=C(C1=O)C13CC1CN(C(=O)OC(C)(C)C)C3=CC2=O (stereo not shown) [compound 56]	3:2
